PubChem BioAssay AID493014 (National Center for Advancing Translational Sciences (NCATS), 2011)
This is one part of the list. These are further read-outs of the screen, such as a control signal, another cell line or another target. No call is given for them. Most of these compounds were active or inconclusive in the main read-out, so they are no random draw. Words in brackets tell the shape of the fitted curve; partial curves, single points and poor fits give uncertain potencies.

Assay: qHTS Assay to Find Inhibitors of Chronic Active B-Cell Receptor Signaling
Conditions: ABC-DLBCL IkBa-CBG/CBR reporter, luminescence ratio (green luciferase fused to IkBa over red control in TMD8 lymphoma cells), 4 h
How it was run: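 Doxycycline induced both beetle luciferases in TMD8 lymphoma cells; IKK-driven degradation limits the IkappaBalpha-fused green signal, while red luminescence normalises for cell number and nonspecific effects. Compounds tested up to 46 uM, 4 hrs.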

[1] = measured here: CBR red luminescence, cell number
[2] = measured here: IkBa-CBG green luminescence

| Structure (SMILES) | AC50 [1] | AC50 [2] |
| --- | --- | --- |
| CCN(C(=O)Nc1cccc(Cl)c1)c1ccccc1 | 11.2 µM [rising, partial curve, poor fit] |  |
| COc1c2occc2cc2ccc(=O)oc12 | 25.9 µM [rising, partial curve, poor fit] |  |
| CCOC(=O)c1c(C)[nH]c(C(=O)OCc2ccc(F)cc2)c1C | 2.82 µM [rising, partial curve] |  |
| Cc1ccc(CCNC(=O)NC(C)(C)C)cc1 | 0.517 µM [rising, full curve, poor fit] |  |
| O=C(Oc1c(Cl)cc(Cl)c2cccnc12)N1CCCCC1 |  | 4.11 µM [rising, partial curve, poor fit] |
| CCOC(=O)c1c(OCCO)nn(-c2ccccc2)c1N | 35.5 µM [falling, single point] |  |
| Cc1ccc(-n2cc(-c3ccccc3)[nH]c2=O)cc1F | 1.16 µM [falling, full curve, poor fit] |  |
| Brc1ccc(OCc2nc3ccccc3[nH]2)cc1 | 8.91 µM [falling, partial curve, poor fit] |  |
| CCCC(=O)N(c1ccc2oc(C)c(C(C)=O)c2c1)S(=O)(=O)c1ccc(C(=O)O)cc1 | 3.55 µM [falling, partial curve, poor fit] |  |
| O=C(NC(=S)NCc1ccc(F)cc1)c1ccccc1 | 1.03 µM [rising, partial curve, poor fit] |  |
| O=S(=O)(c1cccc(Cl)c1)N1CN(CC2CCCO2)c2nc3ccccc3nc21 (configuration not stated) | 8.91 µM [falling, partial curve] |  |
| CCc1cc2cc(C)ccc2nc1SCC(=O)N1CCN(C(=O)c2ccco2)CC1 | 11.2 µM [falling, single point] |  |
| COc1ccc(NC(=O)CSc2ncccc2C(=O)OC(C)C)cc1OC | 29.1 µM [falling, single point] |  |
| CN1/C(=C/C=N/n2cnnc2)C(C)(C)c2ccccc21 | 6.51 µM [falling, single point] | 6.51 µM [rising, partial curve, poor fit] |
| COC(=O)c1cc(CNC(=O)C2CC(=O)N(c3ccc4c(c3)OCCO4)C2)ccc1OC (configuration not stated) | 0.82 µM [rising, partial curve, poor fit] |  |
| CN(C)S(=O)(=O)c1ccc2[nH]cc(/C=C/c3nc4ccccc4c(=O)n3-c3ccccc3)c2c1 | 0.794 µM [falling, full curve, poor fit] |  |
| CCc1ccc(NC(=S)N2CCCC(C(F)(F)F)C2)cc1 (configuration not stated) | 35.5 µM [rising, single point] |  |
| CN1C2C=C3C(C#N)=C(N)C(C#N)(C#N)[C@@H](c4ccsc4)[C@@H]3C1CC2 (some centres not stated) | 29.1 µM [rising, single point] |  |
| O=C(OCC(=O)c1ccc[nH]1)c1ccccc1 | 11.2 µM [falling, partial curve] |  |
| CCOC(=O)/C(=N\Nc1ccccc1[N+](=O)[O-])c1csc(Nc2ccccc2)n1 | 1.26 µM [rising, full curve, poor fit] |  |
| COCCSc1ccccc1C(=O)Nc1cc([N+](=O)[O-])ccc1OC | 12.6 µM [rising, partial curve, poor fit] |  |

2 compounds drawn at random from those above, as already listed:

| Structure (SMILES) | AC50 [1] | AC50 [2] |
| --- | --- | --- |
| CCN(C(=O)Nc1cccc(Cl)c1)c1ccccc1 | 11.2 µM [rising, partial curve, poor fit] |  |
| CN1C2C=C3C(C#N)=C(N)C(C#N)(C#N)[C@@H](c4ccsc4)[C@@H]3C1CC2 (some centres not stated) | 29.1 µM [rising, single point] |  |

The list continues:

| Structure (SMILES) | AC50 [1] | AC50 [2] |
| --- | --- | --- |
| COc1ccc(-c2noc(-c3ccoc3C)n2)cc1 | 0.316 µM [rising, full curve, poor fit] |  |
| CC1=C(C#N)C(c2cn(-c3ccccc3)nc2-c2cccs2)C(C#N)=C(C)N1 | 31.6 µM [falling, single point] |  |
| Cn1ncc2cc(NC(N)=S)ccc21 | 2.82 µM [falling, full curve] |  |
| COc1ccc(CCC(C)Nc2cccc(F)c2)cc1 (configuration not stated) | 0.794 µM [rising, full curve, poor fit] |  |
| CCOc1ccc(S(=O)(=O)N2CCC(C(=O)NCCN3CCOCC3)CC2)cc1C | 5.62 µM [rising, single point] |  |
| Cc1ccc2c(c1)N=C(c1ccccc1)CC(C(Cl)Cl)=N2 | 7.94 µM [falling, partial curve] |  |
| CCOc1ccc2oc(C(=O)NCC3CCCO3)c(C)c2c1 (configuration not stated) | 31.6 µM [rising, single point] |  |
| Cc1cc(NC(=O)c2coc(=O)c(Br)c2)ccc1C(C)C | 12.6 µM [falling, partial curve] |  |
| COc1ccc([C@H]2Oc3cc(O)cc(O)c3C(=O)C2[C@@H]2C(=O)c3c(O)cc(O)cc3O[C@@H]2c2ccc(OC)cc2)cc1 (some centres not stated) | 17.8 µM [falling, single point] |  |
| CCOC(=O)c1ccccc1NC(=O)C1CCN(c2ncnc3sc(C)c(C)c23)CC1 | 25.9 µM [rising, single point] |  |
| COCCNC(=S)Nc1cc(OC)c(NC(=O)c2ccco2)cc1OC | 7.08 µM [rising, partial curve] |  |
| Cc1ccc2c(CC(=O)Nc3ccc(N4CCN(C)CC4)cc3C)coc2c1 | 35.5 µM [falling, single point] |  |
| CCOC(=O)C(Cc1ccccc1)C(=O)Nc1cccc2ccccc12 (configuration not stated) | 0.651 µM [rising, partial curve, poor fit] |  |
| O=C1NC(c2cccc(Br)c2)=N/C1=C\c1ccco1 |  | 23.1 µM [rising, partial curve, poor fit] |
| COc1cccc2sc(NC(=O)c3ccc(Br)s3)nc12 | 0.0517 µM [falling, full curve] |  |
| CC(C)C(=O)Nc1nc2cc3c(cc2s1)OCO3 | 16.4 µM [falling, single point] |  |
| COCCn1c(N)c(N(Cc2ccccc2)C(=O)Cc2ccccc2F)c(=O)[nH]c1=O | 15.8 µM [rising, single point] |  |
| CCN(CC)S(=O)(=O)c1ccc(OC)c(NC(=O)c2ccc3c(c2)OCO3)c1 | 12.6 µM [falling, partial curve, poor fit] |  |
| CCOC(=O)c1ccccc1NC(=O)COC(=O)C(CCSC)NC(=O)COc1ccccc1 (configuration not stated) | 11.6 µM [falling, partial curve] |  |
| CNc1c([N+](=O)[O-])cnn1-c1ccc(F)cc1 | 35.5 µM [rising, partial curve, poor fit] |  |
